Out of some 53,000 sequences screened, about 3,700 (7%) were called active.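 How the source made its calls: active means gene knockdowns whose robust z-score for IL-1 alpha signal is at least 2 or at most -2, so actives lie on both sides; inactive means the rest.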 The list shows a part of the results.
Experiment: Components of the Cytosolic LPS Sensing Pathway: Gene Identification via Genome-wide siRNA Screen;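 further: robust z of the log signal after scaling to non-targeting control siRNA wells of the plate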
Details: RAW264.7 macrophages, IL-1a HTRF, actives lie on both sides, screened at 100 nM (by protocol), cells primed 5 h with Pam3CSK4 first
How it was run: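 RAW264.7; siRNA 100 nM final, RNAiMAX, 48h 37 degrees C; Pam3CSK4 5 h; LipidA + TransIT-TKO 24 h; IL-1a HTRF; CellTiter-Glo viability; robust z vs negative-control median.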
With GGAAGGAAGUCAUUUUUUCTT against Msantd4 the z-score was inactive: -1.29. In the case of CCGAAAUGUGUGUUUUAAATT against Vapb, the z-score was inactive: 1.57. For GCAGUACAAGCGAUUUGUGTT against Duox2, the z-score was inactive: -1.25. For GGGUUAAAGUGCCACGUACTT against Apoc4, the z-score was inactive: 0.641. In the case of GGAGGAAAAGAAAAUUGAGTT against Nefm, the z-score was inactive: -0.125. With CCCAUGUUCGAUGGGAAAGTT against Parp1 the z-score was inactive: -0.186. With GCAAGAAAAUCUGAUGCCGTT against Sumf2 the z-score was inactive: -0.796. For GGUGGACAAGAUGAUGGAATT against Gps2, the z-score was inactive: 1.92. With GCUACUCAUUGCUAAGUGUTT against Kcnmb2 the z-score was inactive: -0.588. For GGUUAUGGAGACAAAGGAUTT against Sik1, the z-score was inactive: -1.33. In the case of GCUGAAUUUUACGAUGAUUTT against Zc3h6, the z-score was inactive: -0.88. With GCUGUCCUUCUAUAACCCATT against Frmd5 the z-score was inactive: -1.68. With GGUUCGUUUUUUGUUGGAATT against Tmed4 the z-score was inactive: 1.31. In the case of GGAUGAACAGGAGAAAGUCTT against Irak2, the z-score was inactive: -1.7. For CCUACUCAGUGUCUUUCAATT against Esrp2, the z-score was inactive: 0.845. In the case of CCGGUACCUAAACUACUUCTT against Unc5b, the z-score was inactive: 1.23. In the case of GCGUAAACCAAGAAAGCUUTT against Mcl1, the z-score was inactive: -0.738. In the case of GUGUGGAAGGAAGAGGUUUTT against Orai1, the z-score was inactive: 0.826. In the case of GCUGCUCUGCUAUAAGUAUTT against Kptn, the z-score was inactive: -0.269. With AGAGAGACUUAUGUCUUUUTT against Draxin the z-score was inactive: 0.381. For GUUUGAAACUCACUGGAAATT against Vmn1r74, the z-score was inactive: 0.916. In the case of GGCUAUGGUUGUGAGUCAATT against Btbd7, the z-score was inactive: -0.509. With GGAGAAAGUCUUUGUGAACTT against Lipc the z-score was inactive: -1.1. With GGAUCAUUUUGAACAAGGCTT against Srl the z-score was inactive: -0.199. In the case of GGUCAAGUCAAUUACAGUUTT against Aifm1, the z-score was inactive: 1.34. With “GGGCAAGGUGUAUUGUCAATT against D830050J10Rik” the z-score was inactive: -0.00921. For CGUUUUUUUCCUGAGCUAUTT against Ccdc115, the z-score was inactive: 0.171. For GGGUUGCUAAAUUUGAAACTT against Psg25, the z-score was inactive: 0.949. In the case of GGUGAUGAAAAUGACAUUCTT against Atp1b4, the z-score was inactive: 0.173. With GCCAAGCCUUUAUCUACCGTT against Fam120b the z-score was inactive: -0.749. In the case of CCAACAUCUCUGUAUACUGTT against Olfr8, the z-score was inactive: 0.178. For GGUAAUUUGUAAGGAACCCTT against Rpusd2, the z-score was inactive: -0.881. With GGAAUAUCUUCUCAAGUCUTT against Zfp418 the z-score was inactive: 0.854. For GGUUUGUGGGCUUUCACACTT against Pdxp, the z-score was inactive: -0.123. For GGCCAACCCAGAGAGUACUTT against Cdc73, the z-score was inactive: 0.854. With CCUUUGAAAAAGCUUGCCATT against Tor1aip2 the z-score was inactive: 0.0385. In the case of GAAGUCCUGAAGAAGCUCATT against Cartpt, the z-score was inactive: -1.01. With GGAGACAGUGAGACAGAUATT against Ncoa3 the z-score was inactive: 1.14. With “GCAGGACAGCAGGAAAAGUTT against 2610028H24Rik” the z-score was inactive: -0.928. With CCUGACUAUCUGAAAGCUATT against Sod2 the z-score was inactive: -0.49. With ACGCAAGUCACCAUCUUCUTT against Tas2r118 the z-score was inactive: -0.823. With GGAUGUAAAAUGCAGUUUATT against Tmsb4x the z-score was inactive: 0.855. For CGACACUGAGCUAAGAGAUTT against Vps36, the z-score was inactive: -0.853. For GCUUUUGAUCUGGAGACCCTT against Klhdc8b, the z-score was inactive: -0.358. For GCUCUACUGCUUCCUUGUUTT against Olfr229, the z-score was inactive: -0.338. For GCAGAUAAUUUUAACCCUCTT against Inpp5b, the z-score was inactive: 0.641. With CCAACAUCUAGAGAGUCUGTT against Olfr1031 the z-score was inactive: -1.36. In the case of GCCCAACAAAAAGUUGAUUTT against Vrk2, the z-score was inactive: 0.627. For GCACACAUCAAGAAACUUGTT against Mxi1, the z-score was inactive: 0.963. For GGUGUCAAAAGUUUUCUAGTT against Tcf23, the z-score was inactive: 0.154. In the case of CCAUCUCUCCAAAGGGCUGTT against Olfr32, the z-score was inactive: 0.056. With GCGAUGCUACUGAAAGCGATT against Catsper2 the z-score was inactive: 0.232. In the case of GGGCAUUAAGACAAAGAGUTT against Fam3c, the z-score was inactive: 0.769. With GGAACACAAAAGCAAAGAUTT against Prpf38b the z-score was active: 2.2. In the case of GGCUUUCAUCGUUUUUGCCTT against Rbm12, the z-score was inactive: -0.504. For GCCUACAACUACUGAAACCTT against Ifne, the z-score was inactive: 0.295. For GGAAGACUUUGGCUUUGAATT against Tfpt, the z-score was inactive: -0.165. For CCAUUUAAACUAGAUCCCATT against Mid2, the z-score was inactive: 0.937. For GCUUUUCGGAGCUCUAUAUTT against Sipa1, the z-score was active: -2.23. With CGGAACAUGGAGUUUAAGCTT against Slfnl1 the z-score was active: 2.3. In the case of CCAAACACAGUUGCACAGGTT against Atg4a, the z-score was inactive: 1.22. With GGAACAUUUCAACCGCCUGTT against Epop the z-score was inactive: 0.223. In the case of GGAUCAUUGACAGUGAAUATT against Blk, the z-score was inactive: -1.35. In the case of GCACUUUCGAGUGGAUGAATT against Hoxd1, the z-score was inactive: -1.05. In the case of GGAGAAUUUGAAGCAACCUTT against Med14, the z-score was inactive: -0.395. With GGGCAUCCGAAUUGACUCATT against Cnpy2 the z-score was inactive: -0.421. With GGCCCAAGGAUCAAUUUAUTT against Zup1 the z-score was inactive: 0.914. In the case of GGGUUAAGAAAACUAGUGGTT against Nnat, the z-score was inactive: -0.777. In the case of GGUGUCUGGUUCAUAAAGGTT against Lcn4, the z-score was inactive: -0.344. In the case of GGCUCUGUAAAGUUCGAGGTT against Kcnip1, the z-score was inactive: -0.376. For GGACAUGAUAACAUGGAUATT against Ubr1, the z-score was inactive: 0.628. For GGCUUUAAAGAAUGAUUCATT against Cfap97, the z-score was inactive: 0.197. With GGAAAGCUUCUGAGUAAUGTT against Tfg the z-score was inactive: 0.225. With GUCACAGUACCCAAAAUGUTT against Olfr979 the z-score was active: -2.42. In the case of GCUCUUUAGACCAGGACAGTT against Olfr103, the z-score was inactive: 0.332. For GGACAGUUGGCUUCCUUCATT against Adamts6, the z-score was inactive: -1.82. In the case of CCCAUUUAGGUUUUUCCUATT against Pde6d, the z-score was inactive: 0.29. For GGAAGAGAGCUGUCAGUGATT against Pth, the z-score was inactive: 0.0839. In the case of CCAGGAUUAUCACAGUGUCTT against Commd8, the z-score was inactive: -0.245. For CCUCUUAGAUAGCACAUUATT against Epx, the z-score was inactive: -0.861. With GCUUCUGAUUAACCUCCAGTT against Olfr1390 the z-score was inactive: -1.49. For GGGUGUGUAUCUUACUAGUTT against Olfr791, the z-score was inactive: 0.14. With GGAUGCUCUAACAGGAAGCTT against Slc26a1 the z-score was inactive: 0.525. With GGCUUGAGACUUAAAACGGTT against Lztfl1 the z-score was inactive: 0.583. In the case of GGUAUUCUAAGAAGUCUUATT against Lmcd1, the z-score was inactive: 0.508. With GGCUCAUUGAGCACAUCAGTT against Ikzf5 the z-score was inactive: 0.253. With UCAGUCGCAUCUCCAAAAATT against Olfr340 the z-score was inactive: 0.727. For GGAGAGAGAUGAAAUUUGATT against Kif26b, the z-score was inactive: 1.79. In the case of GGAAGCAAGGAAAAUCAUGTT against Lpo, the z-score was inactive: -0.289. With CGUAAGUCAGUGAUGCUAUTT against Srp19 the z-score was inactive: 1.38. In the case of GCCUUAUUUGAAAUACAGATT against Zbtb10, the z-score was inactive: 1.07. With GCAGAAUUGAGUCACCCAATT against Sp1 the z-score was active: -2.56. In the case of GGAAACUUGUUGAAGAGAUTT against Ptprz1, the z-score was active: 2.37. In the case of GCCACAAUGUCCAAAAUUATT against Rab6a, the z-score was inactive: -0.271. With GGACACCAUGUGCUAGAGCTT against L1cam the z-score was inactive: -0.286. With GGAUUUUGUGGAUCCAUGGTT against Wars the z-score was inactive: -1.2. For GGCCUCCUAACAAUUCAGCTT against Foxp1, the z-score was inactive: 0.0693. For GGAUAACCUUGAGUAGGUGTT against Olfr906, the z-score was inactive: 0.484. With GGGAUCCCUUCUGGAAAAGTT against Dmrtc2 the z-score was inactive: 0.581. With GUCACUCUUUUUUAUGGAATT against Olfr485 the z-score was inactive: -1.48. With GCCACAUGUCAAACAAGAUTT against Tacc1 the z-score was inactive: -1.41. In the case of GGCAAGCAGUCCAUAUUGUTT against Mapkap1, the z-score was inactive: -0.703. In the case of GCGGAAAAAUUACUUUCUUTT against Tas2r107, the z-score was inactive: -2. With GGACUUCUACCCAGCGAUATT against P3h4 the z-score was inactive: -0.536. With GCCUCAGUGUCUGUUGGAATT against Tmem94 the z-score was inactive: 1.23. With GGAUAUGAUCAACGAAGUGTT against Calm1 the z-score was inactive: -0.155. In the case of CCUAAAUCCUGCUAGGCGUTT against Cbln1, the z-score was inactive: -1.03.
